Data source: PubChem BioAssay AID743454 (Peter MacCallum Cancer Centre, 2014)
Shown is an unselected part of about 18,000 reagents tested. In the full data, 450 (2.5%) got an active call. 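Single biological run; no consistent viability z cut-off exists, so the class columns, not z-scores, define the calls.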 No sequences are given here.

- Test: 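Genes whose loss kills vorinostat-resistant colon cancer cells under vorinostat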 (primary screen)
- Cell system: human HCT116-VR colon cancer cells, selected for vorinostat resistance
- Reagent: siRNA pool against human genes, 40 nM siRNA pool
- Duration: vorinostat for 24 h, read-out about 72 h after transfection
- Conditions: vorinostat at 2.5 µM final
- Read-out: 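Two measures, CellTiter-Fluor viability and luminescent caspase 3/7 activity, each as fold change against same-plate mock wells, mean of duplicates, then screen-wide robust z-score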
- Direction: viability robust z-score: higher = more viable cells than screen typical; caspase robust z-score: higher = more caspase 3/7 activity than screen typical
- Call rule: 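Hits are knock-downs in viability class RV1/RV2 or caspase class CA1/CA2, excluding ones that killed cells in the no-drug cell-count arm; hits then retested with single siRNAs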

target gene | viability hit class | caspase hit class | viability robust z-score | caspase robust z-score | call
STRA8 | no change | no change | -0.8 | 0.79 | inactive
FLYWCH1 | no change | no change | 0.89 | -0.42 | inactive
MMACHC | no change | no change | 0.64 | 0.25 | inactive
ZNF740 | no change | no change | 1.62 | 1.05 | inactive
CASP8AP2 | no change | no change | -1.92 | 3.61 | inactive
NIT2 | no change | no change | -0.18 | -0.16 | inactive
TRIM9 | no change | no change | 0.5 | 0.05 | inactive
BOLA2 | no change | no change | -0.07 | -1.3 | inactive
BATF | no change | no change | 0.3 | -0.6 | inactive
FOSL2 | no change | no change | -0.5 | 2.63 | inactive
RPL41 | no change | no change | 0.12 | 2.75 | inactive
C6orf118 | no change | no change | -2.33 | -0.48 | inactive
PLEKHB1 | RV2 (reduced viability) | CA2 (caspase activation) | -3.42 | 5.64 | active
SNX24 | no change | no change | 0.99 | 0.17 | inactive
RBKS | no change | no change | 0.82 | 0.22 | inactive
GSTM3 | no change | no change | -1.09 | 2.6 | inactive
SLC18A3 | no change | no change | -0.74 | -1.4 | inactive
PRODH2 | no change | no change | 0.82 | -0.74 | inactive
CYYR1 | no change | no change | 0.7 | 0.22 | inactive
HOXC12 | no change | no change | -0.14 | 1.94 | inactive
CDKAL1 | no change | no change | 0.44 | -0.32 | inactive
SCN10A | no change | no change | 0.48 | 0.9 | inactive
CDK2AP1 | no change | no change | -0.82 | 0.05 | inactive
HMGCLL1 | no change | no change | 0.7 | 2.33 | inactive
USP2 | no change | no change | -2.27 | 1.61 | inactive
LHX9 | no change | no change | 0.18 | -0.03 | inactive
CCND1 | no change | no change | 0.38 | -0.71 | inactive
DNAJB5 | no change | no change | -0.36 | 0.92 | inactive
RING1 | no change | no change | -0.34 | 1.77 | inactive
VPS13B | no change | no change | 0.14 | -0.7 | inactive
INPP5K | no change | CA1 (caspase activation) | -0.52 | 5.75 | active
CCDC197 | no change | no change | -0.75 | -0.65 | inactive
HOOK1 | no change | no change | 1.57 | 0.32 | inactive
BAZ1A | no change | no change | 0.76 | 0.96 | inactive
PSTPIP1 | no change | no change | 1.84 | -0.04 | inactive
TMPRSS3 | no change | no change | -0.12 | -0.44 | inactive
LDLRAD1 | no change | no change | -0.24 | -0.13 | inactive
SLC24A4 | no change | no change | -1.23 | -0.45 | inactive
PPFIA2 | no change | no change | -0.92 | 3.25 | inactive
GPSM1 | no change | no change | -0.62 | 0.37 | inactive
PUM2 | no change | no change | 1.4 | -0.63 | inactive
MRPL27 | no change | no change | 1.3 | 1.07 | inactive
TNFRSF10B | no change | no change | 0.5 | -0.47 | inactive
ENPP1 | no change | no change | 0.61 | -0.49 | inactive
NTAQ1 | no change | no change | 0.26 | -0.34 | inactive
RPH3AL | no change | no change | 1.04 | 0.38 | inactive
NBPF15 | no change | no change | 0.26 | -1.02 | inactive
ESPN | no change | no change | -0.76 | 3.62 | inactive
APOLD1 | no change | no change | 0.22 | 0.84 | inactive
ARL11 | no change | no change | -0.89 | 0.72 | inactive
GFRAL | no change | no change | -0.12 | -0.51 | inactive
NALF2 | no change | no change | 0.78 | -0.98 | inactive
GJB3 | no change | no change | 0.54 | -0.62 | inactive
NEK4 | no change | no change | -0.37 | -0.98 | inactive
CIC | no change | no change | 0.3 | 1.75 | inactive
GABPB2 | no change | no change | -0.42 | 0.38 | inactive
SCLT1 | no change | no change | 1.16 | -0.87 | inactive
NOS1 | no change | no change | 0.29 | 3.56 | inactive
REDIC1 | no change | no change | -0.2 | 1.54 | inactive
DOCK1 | no change | no change | -0.91 | 1.19 | inactive
ZDHHC12 | no change | no change | -0.64 | -0.58 | inactive
OPRL1 | no change | no change | 0.37 | 1.21 | inactive
RNF208 | no change | no change | 0.48 | -0.04 | inactive
REN | no change | no change | -0.3 | -0.62 | inactive
COQ3 | no change | no change | -2.48 | 0.18 | inactive
TRIM60 | no change | no change | 0.72 | -0.54 | inactive
RMDN2 | no change | no change | -0.38 | 0.08 | inactive
C1QBP | no change | no change | 0.6 | 0.43 | inactive
CYP4Z1 | no change | no change | -0.33 | 0.24 | inactive
NEK2 | no change | no change | 1.48 | 0.05 | inactive
RWDD3 | no change | no change | 0.06 | 0.94 | inactive
FZD3 | no change | no change | -0.96 | -0.77 | inactive
ITPK1 | no change | no change | 0.05 | -0.55 | inactive

No new results follow: 5 of the entries above.
target gene | viability hit class | caspase hit class | viability robust z-score | caspase robust z-score | call
SLC18A3 | no change | no change | -0.74 | -1.4 | inactive
PRODH2 | no change | no change | 0.82 | -0.74 | inactive
CYYR1 | no change | no change | 0.7 | 0.22 | inactive
HOXC12 | no change | no change | -0.14 | 1.94 | inactive
CDKAL1 | no change | no change | 0.44 | -0.32 | inactive
